Assay results from the supplement of paper PMC10060354, “Discovery of a small molecule ligand of FRS2 that inhibits invasion and tumor growth” (Cellular Oncology, 2022).
Many values rest on one well or one pass, so single values are uncertain.

Amino acid sequences for entries named in this document (tags omitted). A change or cut given only in a name is not applied to a line headed by its entry.
UniProt Q8IXJ6: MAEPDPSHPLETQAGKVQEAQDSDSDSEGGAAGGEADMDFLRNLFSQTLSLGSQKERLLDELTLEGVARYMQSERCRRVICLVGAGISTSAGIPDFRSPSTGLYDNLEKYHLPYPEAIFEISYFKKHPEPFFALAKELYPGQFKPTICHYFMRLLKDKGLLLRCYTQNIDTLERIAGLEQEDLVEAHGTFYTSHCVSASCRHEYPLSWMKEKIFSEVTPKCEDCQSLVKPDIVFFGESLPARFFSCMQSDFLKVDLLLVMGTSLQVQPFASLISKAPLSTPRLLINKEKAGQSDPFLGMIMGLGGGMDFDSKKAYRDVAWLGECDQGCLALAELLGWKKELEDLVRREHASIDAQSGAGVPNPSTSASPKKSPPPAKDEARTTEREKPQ
UniProt O43513: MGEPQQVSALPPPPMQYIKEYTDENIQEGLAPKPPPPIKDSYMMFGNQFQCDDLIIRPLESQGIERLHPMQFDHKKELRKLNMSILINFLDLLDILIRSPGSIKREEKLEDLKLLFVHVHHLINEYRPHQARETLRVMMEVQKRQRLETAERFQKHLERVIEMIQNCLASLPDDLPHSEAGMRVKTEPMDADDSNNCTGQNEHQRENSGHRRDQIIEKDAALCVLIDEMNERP
UniProt O00124: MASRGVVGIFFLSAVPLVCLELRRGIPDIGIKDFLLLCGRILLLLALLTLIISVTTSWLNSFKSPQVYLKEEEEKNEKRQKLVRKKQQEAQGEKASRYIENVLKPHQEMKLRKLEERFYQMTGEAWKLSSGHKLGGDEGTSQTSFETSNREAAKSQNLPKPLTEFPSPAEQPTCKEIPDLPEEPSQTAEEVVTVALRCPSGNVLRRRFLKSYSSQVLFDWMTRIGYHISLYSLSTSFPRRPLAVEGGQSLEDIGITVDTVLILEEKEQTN
UniProt Q7L8J4: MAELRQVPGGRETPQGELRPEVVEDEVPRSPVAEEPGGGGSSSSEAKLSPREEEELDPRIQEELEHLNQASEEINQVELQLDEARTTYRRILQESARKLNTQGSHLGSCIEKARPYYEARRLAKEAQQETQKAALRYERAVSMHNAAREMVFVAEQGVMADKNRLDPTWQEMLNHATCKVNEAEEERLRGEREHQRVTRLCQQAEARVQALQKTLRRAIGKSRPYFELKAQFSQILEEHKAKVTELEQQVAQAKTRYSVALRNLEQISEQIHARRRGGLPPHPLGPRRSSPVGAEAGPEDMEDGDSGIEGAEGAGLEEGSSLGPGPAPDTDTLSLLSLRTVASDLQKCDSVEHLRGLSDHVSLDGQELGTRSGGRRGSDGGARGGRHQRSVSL
UniProt O00442: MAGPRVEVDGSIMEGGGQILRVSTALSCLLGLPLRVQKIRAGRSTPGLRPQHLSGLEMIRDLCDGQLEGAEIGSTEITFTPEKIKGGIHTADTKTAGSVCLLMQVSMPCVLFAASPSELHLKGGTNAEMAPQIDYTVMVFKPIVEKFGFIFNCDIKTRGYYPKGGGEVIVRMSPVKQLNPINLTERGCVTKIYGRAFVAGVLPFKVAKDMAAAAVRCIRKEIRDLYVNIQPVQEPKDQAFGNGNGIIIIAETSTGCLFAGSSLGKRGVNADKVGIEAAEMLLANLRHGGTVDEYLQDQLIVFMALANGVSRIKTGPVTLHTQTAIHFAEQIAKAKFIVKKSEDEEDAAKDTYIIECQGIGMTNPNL
UniProt O60256: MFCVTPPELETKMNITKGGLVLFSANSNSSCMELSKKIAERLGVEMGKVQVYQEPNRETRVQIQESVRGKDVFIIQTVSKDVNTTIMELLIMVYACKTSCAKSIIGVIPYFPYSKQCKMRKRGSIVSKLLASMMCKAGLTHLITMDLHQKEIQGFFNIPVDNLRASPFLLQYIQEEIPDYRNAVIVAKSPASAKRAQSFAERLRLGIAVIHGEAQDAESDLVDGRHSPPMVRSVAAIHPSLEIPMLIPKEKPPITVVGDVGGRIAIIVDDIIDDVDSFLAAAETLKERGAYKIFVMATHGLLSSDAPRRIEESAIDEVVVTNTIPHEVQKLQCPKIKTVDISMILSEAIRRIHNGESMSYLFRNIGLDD
UniProt Q9BQ15: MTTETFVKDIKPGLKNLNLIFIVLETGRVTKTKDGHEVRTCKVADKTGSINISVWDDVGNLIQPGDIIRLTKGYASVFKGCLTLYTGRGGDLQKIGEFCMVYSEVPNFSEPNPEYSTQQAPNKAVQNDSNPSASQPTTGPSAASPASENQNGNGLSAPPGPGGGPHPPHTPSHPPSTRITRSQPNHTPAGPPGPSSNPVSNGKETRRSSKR
UniProt Q6P1K2: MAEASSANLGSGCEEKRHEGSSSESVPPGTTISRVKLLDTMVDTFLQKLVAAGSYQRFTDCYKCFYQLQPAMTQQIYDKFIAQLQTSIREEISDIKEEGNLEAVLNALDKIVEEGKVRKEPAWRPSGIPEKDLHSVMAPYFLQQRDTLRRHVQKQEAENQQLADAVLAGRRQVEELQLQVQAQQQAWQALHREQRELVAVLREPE
UniProt P26641, whole entry: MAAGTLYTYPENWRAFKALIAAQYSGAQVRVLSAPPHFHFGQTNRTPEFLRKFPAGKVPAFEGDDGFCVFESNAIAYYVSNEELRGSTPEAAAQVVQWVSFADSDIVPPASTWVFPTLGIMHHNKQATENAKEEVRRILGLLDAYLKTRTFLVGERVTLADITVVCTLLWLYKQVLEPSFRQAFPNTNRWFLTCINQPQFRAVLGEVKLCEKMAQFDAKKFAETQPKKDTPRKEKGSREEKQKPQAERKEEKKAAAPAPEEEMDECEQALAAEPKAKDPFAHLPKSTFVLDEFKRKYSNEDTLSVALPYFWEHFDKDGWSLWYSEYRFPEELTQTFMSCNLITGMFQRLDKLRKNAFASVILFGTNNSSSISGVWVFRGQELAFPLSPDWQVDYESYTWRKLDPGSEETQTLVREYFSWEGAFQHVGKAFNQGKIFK
UniProt Q92544: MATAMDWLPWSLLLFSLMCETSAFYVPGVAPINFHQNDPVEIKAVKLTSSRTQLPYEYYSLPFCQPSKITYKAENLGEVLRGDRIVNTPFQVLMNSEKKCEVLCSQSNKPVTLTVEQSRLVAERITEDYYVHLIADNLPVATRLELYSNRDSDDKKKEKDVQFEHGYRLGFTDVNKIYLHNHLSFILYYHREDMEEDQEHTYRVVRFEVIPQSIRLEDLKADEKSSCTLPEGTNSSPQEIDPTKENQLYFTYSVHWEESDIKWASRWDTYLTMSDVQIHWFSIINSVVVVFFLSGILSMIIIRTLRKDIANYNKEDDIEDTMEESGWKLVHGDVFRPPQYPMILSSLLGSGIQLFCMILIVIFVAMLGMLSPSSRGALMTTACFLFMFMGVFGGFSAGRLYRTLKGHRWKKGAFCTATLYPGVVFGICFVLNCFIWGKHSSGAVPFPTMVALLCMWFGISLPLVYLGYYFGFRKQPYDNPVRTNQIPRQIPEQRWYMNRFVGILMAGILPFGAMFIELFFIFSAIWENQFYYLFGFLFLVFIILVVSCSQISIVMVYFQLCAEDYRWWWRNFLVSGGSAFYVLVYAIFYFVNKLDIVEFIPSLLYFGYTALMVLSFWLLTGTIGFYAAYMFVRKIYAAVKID
UniProt O95071: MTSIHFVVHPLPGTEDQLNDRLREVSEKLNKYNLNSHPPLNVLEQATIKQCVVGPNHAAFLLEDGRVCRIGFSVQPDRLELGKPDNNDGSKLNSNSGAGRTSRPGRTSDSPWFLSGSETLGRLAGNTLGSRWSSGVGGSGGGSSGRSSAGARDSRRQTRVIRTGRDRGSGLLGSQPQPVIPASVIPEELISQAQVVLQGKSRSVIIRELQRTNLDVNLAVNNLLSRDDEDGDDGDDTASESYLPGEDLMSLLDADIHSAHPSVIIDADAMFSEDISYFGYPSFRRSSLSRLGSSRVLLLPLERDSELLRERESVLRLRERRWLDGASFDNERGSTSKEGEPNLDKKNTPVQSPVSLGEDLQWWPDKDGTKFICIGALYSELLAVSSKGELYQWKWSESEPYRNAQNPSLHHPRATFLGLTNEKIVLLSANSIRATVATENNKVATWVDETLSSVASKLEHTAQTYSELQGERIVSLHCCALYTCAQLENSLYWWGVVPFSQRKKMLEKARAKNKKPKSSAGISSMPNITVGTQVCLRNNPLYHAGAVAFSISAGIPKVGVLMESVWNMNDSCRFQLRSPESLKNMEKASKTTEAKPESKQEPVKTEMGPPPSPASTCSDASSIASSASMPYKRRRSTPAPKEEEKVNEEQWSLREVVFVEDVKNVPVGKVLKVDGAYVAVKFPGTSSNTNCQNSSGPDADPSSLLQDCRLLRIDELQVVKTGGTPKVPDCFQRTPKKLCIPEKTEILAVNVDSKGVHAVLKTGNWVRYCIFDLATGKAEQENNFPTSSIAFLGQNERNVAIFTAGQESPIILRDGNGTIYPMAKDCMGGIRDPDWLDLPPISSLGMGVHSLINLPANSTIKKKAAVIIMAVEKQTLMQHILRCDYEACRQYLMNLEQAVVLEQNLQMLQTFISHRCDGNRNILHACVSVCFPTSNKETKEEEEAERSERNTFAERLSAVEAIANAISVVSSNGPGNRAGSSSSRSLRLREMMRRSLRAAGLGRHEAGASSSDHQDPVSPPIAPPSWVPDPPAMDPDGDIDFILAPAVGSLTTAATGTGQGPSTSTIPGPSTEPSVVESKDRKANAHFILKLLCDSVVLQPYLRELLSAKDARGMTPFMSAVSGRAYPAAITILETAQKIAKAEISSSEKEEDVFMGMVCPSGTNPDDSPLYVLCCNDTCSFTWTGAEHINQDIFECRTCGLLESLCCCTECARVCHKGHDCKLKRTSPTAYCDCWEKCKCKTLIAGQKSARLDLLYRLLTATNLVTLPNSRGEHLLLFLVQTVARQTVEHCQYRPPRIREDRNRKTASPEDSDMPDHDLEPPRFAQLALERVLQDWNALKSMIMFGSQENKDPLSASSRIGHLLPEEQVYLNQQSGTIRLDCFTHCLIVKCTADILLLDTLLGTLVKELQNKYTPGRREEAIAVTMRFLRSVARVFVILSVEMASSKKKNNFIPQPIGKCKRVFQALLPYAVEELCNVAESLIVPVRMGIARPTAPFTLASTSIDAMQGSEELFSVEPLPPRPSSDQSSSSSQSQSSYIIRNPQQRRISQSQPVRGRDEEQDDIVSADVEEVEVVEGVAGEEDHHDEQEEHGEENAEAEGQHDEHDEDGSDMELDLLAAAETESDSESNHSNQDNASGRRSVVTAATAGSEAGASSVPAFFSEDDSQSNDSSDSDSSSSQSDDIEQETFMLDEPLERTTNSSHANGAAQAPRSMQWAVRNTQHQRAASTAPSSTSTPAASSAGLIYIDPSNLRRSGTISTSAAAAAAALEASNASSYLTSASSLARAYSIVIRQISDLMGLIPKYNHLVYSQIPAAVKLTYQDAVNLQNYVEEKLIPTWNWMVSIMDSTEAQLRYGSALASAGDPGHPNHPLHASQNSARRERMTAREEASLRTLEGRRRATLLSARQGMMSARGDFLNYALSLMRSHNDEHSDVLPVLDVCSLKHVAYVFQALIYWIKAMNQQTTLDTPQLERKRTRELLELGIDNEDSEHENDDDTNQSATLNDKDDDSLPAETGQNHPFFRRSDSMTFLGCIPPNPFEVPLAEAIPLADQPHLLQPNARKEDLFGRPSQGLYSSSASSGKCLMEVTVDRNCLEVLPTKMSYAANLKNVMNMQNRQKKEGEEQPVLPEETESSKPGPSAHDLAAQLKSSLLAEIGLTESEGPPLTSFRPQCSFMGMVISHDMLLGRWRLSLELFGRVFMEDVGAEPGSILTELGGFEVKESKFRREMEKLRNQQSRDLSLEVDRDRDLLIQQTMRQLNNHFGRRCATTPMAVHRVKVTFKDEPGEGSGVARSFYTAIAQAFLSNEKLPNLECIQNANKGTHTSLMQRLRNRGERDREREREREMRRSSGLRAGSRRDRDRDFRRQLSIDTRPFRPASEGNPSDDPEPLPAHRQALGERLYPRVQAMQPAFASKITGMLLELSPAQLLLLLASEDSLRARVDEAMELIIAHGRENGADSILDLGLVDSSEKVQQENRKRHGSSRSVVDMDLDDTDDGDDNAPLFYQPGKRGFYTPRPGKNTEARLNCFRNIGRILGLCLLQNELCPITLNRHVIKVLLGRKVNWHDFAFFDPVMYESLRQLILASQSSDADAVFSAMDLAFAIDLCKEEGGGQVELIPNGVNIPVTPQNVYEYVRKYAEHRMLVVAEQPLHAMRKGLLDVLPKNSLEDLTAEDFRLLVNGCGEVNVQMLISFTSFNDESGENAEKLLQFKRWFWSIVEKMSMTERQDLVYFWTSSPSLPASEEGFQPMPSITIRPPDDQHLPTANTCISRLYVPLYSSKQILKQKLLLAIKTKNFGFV
UniProt O14910: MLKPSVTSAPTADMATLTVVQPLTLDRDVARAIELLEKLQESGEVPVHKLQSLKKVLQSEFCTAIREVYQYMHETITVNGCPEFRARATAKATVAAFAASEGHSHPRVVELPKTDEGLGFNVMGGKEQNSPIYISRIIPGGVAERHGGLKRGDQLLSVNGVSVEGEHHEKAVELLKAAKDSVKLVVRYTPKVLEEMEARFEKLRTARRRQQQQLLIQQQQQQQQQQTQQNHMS

Compound: [O-][N+](C(C1=C(C(O)=C2)NC(C(C=C3)=CC=C3Cl)C4C1C=CC4)=C2Cl)=O
Assay: melting temperature shift (compound 7 minus DMSO); higher = compound stabilises the protein
Details: 10 µM
Protocol: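 Thermal proteome profiling (TMT mass spectrometry) in intact DAOY medulloblastoma cells or DAOY lysates treated with 10 µM compound 7 or DMSO, heated at 10 temperatures from 40.5 to 73.8 °C for 3 min. Melting curves were fitted with the Bioconductor TPP package, and the melting point difference between compound and vehicle is reported per protein (single curve per condition).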

[1] = system: intact DAOY cells, treatment time: 90 min, 37 °C
[2] = system: DAOY cell lysate, treatment time: 20 min, 4 °C

Target | melting temperature shift [1] | melting temperature shift [2]
SIRT2 (UniProt Q8IXJ6) | -0.8 °C | –
UniProt Q16739 | 0.352 °C | –
PDDC1 (UniProt Q8NB37) | -1.66 °C | -0.638 °C
UniProt P08247 | 6.1 °C | –
LYPLA1 (UniProt O75608) | -0.268 °C | -0.737 °C
EIF3H (UniProt O15372) | 0.724 °C | -0.486 °C
POLR3A (UniProt O14802) | -1.33 °C | 0.361 °C
TRRAP (UniProt Q9Y4A5) | 0.152 °C | 0.519 °C
WDHD1 (UniProt O75717) | -0.503 °C | -0.807 °C
UniProt Q8TET4 | -0.332 °C | –
UniProt Q12955 | -0.00651 °C | -0.135 °C
MED7 (UniProt O43513) | – | -2.17 °C
SGPL1 (UniProt O95470) | 1.28 °C | 1.74 °C
SRPK1 (UniProt Q96SB4) | 0.201 °C | -0.806 °C
UBXN8 (UniProt O00124) | -1.64 °C | –
UniProt Q16864 | -0.358 °C | -0.481 °C
UniProt Q5R372 | 0.75 °C | 0.29 °C
NSUN4 (UniProt Q96CB9) | 1.84 °C | –
UniProt Q9Y2U5 | -0.711 °C | -1.22 °C

Copied from the list:
Value for EIF3H (UniProt O15372) under melting temperature shift [2]: -0.486 °C
Value for WDHD1 (UniProt O75717) under melting temperature shift [1]: -0.503 °C
Value for UniProt Q8TET4 under melting temperature shift [1]: -0.332 °C

Going on with the list.

Target | melting temperature shift [1] | melting temperature shift [2]
SH3BP5L (UniProt Q7L8J4) | -1.24 °C | 1.12 °C
HSP90AB1 (UniProt P08238) | -0.356 °C | -0.348 °C
UniProt P45985 | -2.26 °C | -0.65 °C
UniProt Q9P0J0 | 0.227 °C | 2.68 °C
CHMP2A (UniProt O43633) | -1.34 °C | -1.31 °C
UniProt P62891 | 1.57 °C | -1.27 °C
ANAPC7 (UniProt Q9UJX3) | 0.721 °C | -0.124 °C
RTCA (UniProt O00442) | -0.467 °C | -0.59 °C
UniProt P50406 | -0.489 °C | –
CCDC6 (UniProt Q16204) | 0.196 °C | -1.61 °C
UniProt O15254 | 1.24 °C | –
MAN2A1 (UniProt Q16706) | -0.0918 °C | 1.11 °C
ASUN (UniProt Q9NVM9) | 0.399 °C | -0.0802 °C
RP2 (UniProt O75695) | 0.184 °C | 1.24 °C
EMC4 (UniProt Q5J8M3) | -0.842 °C | 0.359 °C
FYN (UniProt P06241) | 2.15 °C | –
PRPSAP2 (UniProt O60256) | -0.499 °C | -1.05 °C
UniProt P78540 | -2.11 °C | 1.52 °C
DRG1 (UniProt Q9Y295) | -0.203 °C | -0.26 °C

Target | melting temperature shift [1] | melting temperature shift [2]
USP24 (UniProt Q9UPU5) | -1.5 °C | -0.44 °C
UniProt Q9UJ55 | 0.471 °C | –
HGS (UniProt O14964) | -0.287 °C | -0.0684 °C
NABP2 (UniProt Q9BQ15) | – | -0.00379 °C
PACSIN2 (UniProt Q9UNF0) | -0.271 °C | -1.49 °C
SH3BP4 (UniProt Q9P0V3) | -0.0209 °C | -0.922 °C
PMF1 (UniProt Q6P1K2) | -1.42 °C | 0.246 °C
ABHD11 (UniProt Q8NFV4) | 0.367 °C | 1.29 °C
EEF1G (UniProt P26641) | 0.0135 °C | -0.112 °C
TM9SF4 (UniProt Q92544) | -0.191 °C | 0.884 °C
UBR5 (UniProt O95071) | -1 °C | -0.515 °C
RSPRY1 (UniProt Q96DX4) | – | -1.89 °C
UniProt P42677 | -1.59 °C | -0.978 °C
UniProt O14910 | 1.13 °C | –
UniProt Q9H479 | -7.98 °C | 2.67 °C
UniProt O96007 | – | -0.0581 °C
UniProt P24043 | -3.75 °C | –
UniProt Q96RT6 | -0.113 °C | –
UniProt P00749 | -0.114 °C | 0.164 °C
